Laboratory results from US9850283B2 (BRISTOL-MYERS SQUIBB COMPANY, priority 2013, dated 2017).
For part of these data: HELM strings list residues between dots; [ac] is acetyl, [am] amide, other brackets name non-standard units.

assay: general procedure: Fmoc solid-phase peptide synthesis; Sieber Amide resin (0.71 mmol/g); HATU/N-methyl morpholine (HCTU/DIEA on Liberty); details: cyclisation step, LCMS analysis

Substance	final HPLC purity [%]
ClAc F L I V I R D R V F R C G NH2	99

same assay, conditions: whole synthesis, LCMS analysis, scale of the general procedure 0.100 mmol

Substance	final HPLC purity [%]	final LC-MS purity [%]
C1Ac F mAla N P H L Sar W S W mNle mNle R C G PEG12-NH2	96	–
ClAc 2-Nal ^mAla N P H L Sar W S W ^mNle ^mNle R C G NH2	–	100
ClAc A ^mAla N P H L Sar W S W ^mNle ^mNle R C G NH2	–	98
ClAc F A N P H L Sar W S W ^mNle ^mNle R C G NH2	99	–
ClAc F D-Phe I V I R D R V F R C G NH2	98	–
ClAc F F I V I R D R V F R C G NH2	95	–
ClAc F F L V I R D R V F R C G NH2	99	–
ClAc F L F V I R D R V F R C G NH2	96	–
ClAc F L I F I R D R V F R C G NH2	95	–
ClAc F L I V I H D R V F R C G NH2	98	–
ClAc F L I V I L D R V F R C G NH2	98	–
ClAc F L I V I R D R F F R C G NH2	95	–
ClAc F L I V I R D R L F R C G NH2	95	–
ClAc F L I V I R D R V F Y C G NH2	98	–
ClAc F L I Y I R D R V F R C G NH2	91	–
ClAc F L L V I R D R V F R C G NH2	99	–
ClAc F Sar N P H L Sar W S W ^mNle ^mNle R C G NH2	97	–
ClAc F ^mAla A P H L Sar W S W ^mNle ^mNle R C G NH2	92	–
ClAc F ^mAla N A H L Sar W S W ^mNle ^mNle R C G NH2	93	–
ClAc F ^mAla N P A L Sar W S W ^mNle ^mNle R C G NH2	99	–
ClAc F ^mAla N P H A Sar W S W ^mNle ^mNle R C G NH2	99	–
ClAc F ^mAla N P H H S W R W ^mNle ^mNle L C G NH2	93	–
ClAc F ^mAla N P H L D-^mAla W S W ^mNle ^mNle R C G NH2	–	98
ClAc F ^mAla N P H L G W S W ^mNle ^mNle R C G NH2	92	–
ClAc F ^mAla N P H L Sar A S W ^mNle ^mNle R C G NH2	93	–
ClAc F ^mAla N P H L Sar W A W ^mNle ^mNle R C G NH2	99	–
ClAc F ^mAla N P H L Sar W S A ^mNle ^mNle R C G NH2	93	–
ClAc F ^mAla N P H L Sar W S W Nle ^mNle R C G NH2	95	–

Substance	final HPLC purity [%]	final LC-MS purity [%]
ClAc F ^mAla N P H L Sar W S W ^mAla ^mNle R C G NH2	–	97
ClAc F ^mAla N P H L Sar W S W ^mNle Nle R C G NH2	91	–
ClAc F ^mAla N P H L Sar W S W ^mNle ^mAla R C G NH2	99	–
ClAc F ^mAla N P H L Sar W S W ^mNle ^mNle A C G NH2	99	–
ClAc F ^mAla N P H L Sar W S W ^mNle ^mNle R C G NH2	97	–
ClAc F ^mAla N P H L Sar W S W ^mNle ^mNle R C NH2	–	100
ClAc F ^mAla N P H L Sar W S W ^mNle ^mNle R ^DCys G NH2	–	98
ClAc F ^mAla N P H R S W R W ^mNle ^mNle L C G NH2	98	–
ClAc F ^mAla N P L R S W R W ^mNle ^mNle L C G NH2	99	–
ClAc Trp ^mAla N P H L Sar W S W ^mNle ^mNle R C G NH2	–	100
ClAc-A-^mPhe-^mNle-Sar-D-V-^mPhe-Y-Sar-W-Y-L-C-G-NH2	98	–
ClAc-F-Phe-^mNle-Sar-D-V-^mPhe-Y-Sar-W-Y-L-C-G-NH2	–	99
ClAc-F-^mAla-^mNle-Sar-D-V-^mPhe-Y-Sar-W-Y-L-C-G-NH2	–	100.0
ClAc-F-^mPhe-^mNle-Gly-D-V-^mPhe-Y-Sar-W-Y-L-C-G-NH2	–	97.7
ClAc-F-^mPhe-^mNle-Sar-A-V-^mPhe-Y-Sar-W-Y-L-C-G-NH2	–	97
ClAc-F-^mPhe-^mNle-Sar-D-A-^mPhe-Y-Sar-W-Y-L-C-G-NH2	–	95.7
ClAc-F-^mPhe-^mNle-Sar-D-V-Phe-Y-Sar-W-Y-L-C-G-NH2	90	–
ClAc-F-^mPhe-^mNle-Sar-D-V-^mPhe-Y-Gly-W-Y-L-C-G-NH2	98	–
ClAc-F-^mPhe-^mNle-Sar-D-V-^mPhe-Y-Sar-W-A-L-C-G-NH2	–	96
ClAc-F-^mPhe-^mNle-Sar-D-V-^mPhe-Y-Sar-W-Y-A-C-G-NH2	97	–
ClAc-F-^mPhe-^mNle-Sar-D-V-^mPhe-Y-Sar-W-Y-L-C-G-NH2	–	97.9
ClAc-F-^mPhe-^mNle-Sar-D-V-^mPhe-Y-^mAla-W-Y-L-C-G-NH2	91	–
ClAc-F-^mPhe-^mNle-^mAla-D-V-^mPhe-Y-Sar-W-Y-L-C-G-NH2	–	100
PEPTIDE1{[CH2CO].F.L.I.V.I.R.D.R.V.F.P.C.G.[am]}$PEPTIDE1,PEPTIDE1,1:R3-13:R3$$$V2.0	94	–
PEPTIDE1{[CH2CO].F.[mPhe].[mNle].[Sar].D.V.[mAla].Y.[Sar].W.Y.L.C.G.[am]}$PEPTIDE1,PEPTIDE1,1:R3-14:R3$$$V2.0	–	100
PEPTIDE1{[CH2CO].F.[mPhe].[mNle].[Sar].D.V.[mPhe].A.[Sar].W.Y.L.C.G.[am]}$PEPTIDE1,PEPTIDE1,1:R3-14:R3$$$V2.0	–	100
PEPTIDE1{[CH2CO].F.[mVal].N.P.H.L.[Sar].W.S.W.[mNle].[mNle].R.C.G.[am]}$PEPTIDE1,PEPTIDE1,1:R3-15:R3$$$V2.0	–	100

same assay, conditions: whole synthesis, LCMS analysis, scale of the general procedure 0.100 mmol; run 1

Substance	final HPLC purity [%]	final LC-MS purity [%]
ClAc F L I V V R D R V F R C G NH2	98	–
PEPTIDE1{[CH2CO].F.[mAla].N.P.H.L.[Dab].W.S.W.[mNle].[mNle].R.C.G.[am]}$PEPTIDE1,PEPTIDE1,1:R3-15:R3$$$V2.0	–	100

same assay, conditions: whole synthesis, LCMS analysis, scale of the general procedure 0.100 mmol; run 2

Substance	final HPLC purity [%]	final LC-MS purity [%]
ClAc F L I V V R D R V F R C G NH2	96	–
PEPTIDE1{[CH2CO].F.[mAla].N.P.H.L.[Dab].W.S.W.[mNle].[mNle].R.C.G.[am]}$PEPTIDE1,PEPTIDE1,1:R3-15:R3$$$V2.0	–	97.5

same assay, conditions: whole synthesis, LCMS conditions B and D, scale of the general procedure 0.100 mmol

Substance	final LC-MS purity [%]
PEPTIDE1{[CH2CO].F.[mAla].N.P.H.D.[Sar].W.S.W.[mNle].[mNle].R.C.G.[am]}$PEPTIDE1,PEPTIDE1,1:R3-15:R3$$$V2.0	97

assay: general procedure: Fmoc solid-phase peptide synthesis; Fmoc-PEG12-Sieber amide resin; HATU/N-methyl morpholine (HCTU/DIEA on Liberty); details: whole synthesis, LCMS analysis, scale 0.05 mmol

Substance	final HPLC purity [%]
C1Ac F mAla N P H H S W R W mNle mNle L C G PEG12-NH2	98

same assay, conditions: whole synthesis, scale 0.05 mmol

Substance	isolated mass [mg]
C1Ac F mAla N P H H S W R W mNle mNle L C G PEG12-NH2	6.2
